Results are given in words; binding and its absence hold for the method and conditions named. Some entries that bind do so weakly or less than the wild type.

Chains of the proteins cited; added tags and fusions are not shown. Lines headed by an entry give the natural chain unless they say otherwise; changes in a name come on top.
UniProt Q03160: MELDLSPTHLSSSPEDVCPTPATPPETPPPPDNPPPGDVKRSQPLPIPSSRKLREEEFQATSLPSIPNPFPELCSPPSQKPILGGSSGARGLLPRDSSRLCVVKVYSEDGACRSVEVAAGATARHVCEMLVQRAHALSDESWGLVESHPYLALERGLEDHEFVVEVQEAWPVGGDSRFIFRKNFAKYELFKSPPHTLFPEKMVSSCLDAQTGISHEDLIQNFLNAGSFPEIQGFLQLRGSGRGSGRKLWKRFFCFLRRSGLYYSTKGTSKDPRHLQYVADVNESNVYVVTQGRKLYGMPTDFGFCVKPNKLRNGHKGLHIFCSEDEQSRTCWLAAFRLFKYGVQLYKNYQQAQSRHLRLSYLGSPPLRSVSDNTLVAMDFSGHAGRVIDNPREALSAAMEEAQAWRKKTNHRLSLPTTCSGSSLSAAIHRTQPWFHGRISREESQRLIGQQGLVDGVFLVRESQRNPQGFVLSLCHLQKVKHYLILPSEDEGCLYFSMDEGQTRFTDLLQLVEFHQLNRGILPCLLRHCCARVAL

This test addresses EGFR/HER2 chimera (HER2 intracellular domain fused to the EGF-Receptor extracellular domain), expressed in NIH 3T3 cells (UniProt P00533). The experiment in a line: anti-GRB-7 immunoprecipitation from EGF stimulated NIH 3T3 cells with the chimera and GRB-7, anti-PTyr blot (FIG. 7A).

Regarding “GRB-7 transfected into NIH 3T3 cells expressing the EGFR/HER2 chimera (from UniProt Q03160 1-535)”, the binding entry is given as “binds”.

The record behind these values is patent US6630318.
